# Assay results as given in patent US9758787B2, “Engineering microorganisms” (DSM NUTRITIONAL PRODUCTS AG, priority 2011, dated 2017).
# At least one compound was matched to its structure with a doubt left.
# Test system: Thraustochytrium sp. ONC-T18
# Assay: Effects of different antibiotics on growth of ONC-T18 on ONC-T18-GM0 agar plates (Example 3)
# Assay type: cell-based
# Details: 25° C.
# Description: Thraustochytrium sp. ONC-T18 was grown on agar plates (20 g agar per liter ONC-T18-GM0). One loop of inoculum of ONC-T18 was inoculated into 50 mL of liquid ONC-T18-GM0, and the culture was incubated in a shaker incubator at 25° C. at 250 rpm for 36 hours. Half a milliliter of the culture was transferred into a 1.5 mL tube and vortexed at full speed for 30 seconds to break down cell clusters, then diluted in 50 mL sterilized water. One hundred microliters of the resulting solution was spread onto each ONC-T18-GM0 medium plate. Each plate contained one of various antibiotics at one of various concentrations. Plates were incubated at 25° C. and emergence and development of colonies were observed daily.
smiles,measurement,setting,value
"Cc1c(N)nc([C@H](CC(N)=O)NC[C@H](N)C(N)=O)nc1C(=O)N[C@H](C(=O)N[C@H](C)[C@@H](O)[C@H](C)C(=O)N[C@H](C(=O)NCCC1=N[C@@H](c2nc(C(=O)NCCCCN=C(N)N)cs2)CS1)[C@@H](C)O)[C@@H](O[C@@H]1O[C@@H](CO)[C@@H](O)[C@H](O)[C@@H]1O[C@H]1O[C@H](CO)[C@@H](O)[C@H](OC(N)=O)[C@@H]1O)c1cnc[nH]1 [Zeocin, phleomycin D1]",growth of Thraustochytrium sp. ONC-T18,antibiotic 10 μg/mL medium,+++
same,growth of Thraustochytrium sp. ONC-T18,antibiotic 30 μg/mL medium,++
same,growth of Thraustochytrium sp. ONC-T18,antibiotic 50 μg/mL medium,+
